# The list shows only some results of the screen, not a fair sample: it gathers tests that were run many times, whatever their T/C, doses with no T/C, and many T/C values between a quarter and a half above the control. Further doses and runs are listed elsewhere. T/C is the treated group as % of the vehicle group. Some entries give survivors of the animals treated and no T/C: the source holds a T/C of zero for them, seemingly a mark for toxic or unscored doses. Some survivor counts are full or nearly so, which does not show that the dose was tolerated: survival well below the control is almost never listed, so the zero probably covers shortened survival too. Counts of survivors are from the toxicity check (mostly the fifth day) where no day follows; animals may have died later. Schedule codes are those of the source, read here as Q, the interval in days (D) or hours (H), X, the number of doses. Some entries were tested several times; the values are given in rising order. Marks such as (2×) stand for listed records that agree. For survival time, the PubChem record calls one and a half times the control and up active, and a quarter to a half above the control has no call in these data; cut-offs in other NCI protocols can differ. Some T/C values carry the count of animals alive at the toxicity check (mostly the fifth day); without a count, all were alive then.
# Tested on: BDF1 mice, P388 leukemia ip, median survival T/C
# Assay: NCI In Vivo Anticancer Drug Screen. Data for tumor model P388 Leukemia (intraperitoneal) in B6D2F1 (BDF1) mice
# Settings: T/C endpoint: median survival time, higher T/C = longer survival
# Summary of the method: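 T/C = treated-group survival ÷ vehicle-control survival; tumour transplanted into mice before dosing.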
# [1] = dose: 200.0 mg/kg/injection, schedule: Q01DX009 (ip), vehicle: Klucel (hydroxypropylcellulose) (HPC)
# [2] = dose: 400.0 mg/kg/injection, schedule: Q01DX009 (ip), vehicle: Klucel (hydroxypropylcellulose) (HPC)
# [3] = dose: 400.0 mg/kg/injection, schedule: Q04DX002 (ip), vehicle: Klucel (hydroxypropylcellulose) (HPC)
structure (smiles),measurement,setting,value
O=C1CN=C(c2ccc[nH]2)c2cc(Cl)ccc2N1,T/C,"dose: 200.0 mg/kg/injection, schedule: Q01DX001 (ip), vehicle: Klucel (hydroxypropylcellulose) (HPC), evaluated on day 35",100 and 107 % of control
same,survivor count,"dose: 200.0 mg/kg/injection, schedule: Q01DX001 (ip), vehicle: Klucel (hydroxypropylcellulose) (HPC)","0 of 6, 3 of 3, 6 of 6"
same,T/C,"dose: 200.0 mg/kg/injection, schedule: Q01DX005 (ip), vehicle: Klucel (hydroxypropylcellulose) (HPC), evaluated on day 30","90, 91, 92 [4 of 6 alive], 97, 100, 102, 105, 106, 107, 109, 116 [2 of 3 alive], 117 [2 of 3 alive], 120, 123, 125, 126 [5 of 6 alive], 127, 130, 132, 132 [4 of 6 alive], 133, 138, 140 [4 of 6 alive], 147 % of control"
same,T/C,"dose: 200.0 mg/kg/injection, schedule: Q01DX005 (ip), vehicle: Klucel (hydroxypropylcellulose) (HPC), evaluated on day 35",105 % of control
same,survivor count,"dose: 200.0 mg/kg/injection, schedule: Q01DX005 (ip), vehicle: Klucel (hydroxypropylcellulose) (HPC)","0 of 3, 1 of 3, 3 of 6, 2 of 3, 5 of 6, 3 of 3"
same,T/C,[1],"91, 92, 95, 96, 100 (2×), 102, 104 (3×), 104 [2 of 3 alive], 105, 110, 111 (2×), 118, 119 [4 of 6 alive], 129, 131, 133, 136 [5 of 6 alive], 155, 162 % of control"
same,survivor count,[1],"0 of 3, 1 of 3, 2 of 6, 3 of 6, 2 of 3, 5 of 6, 3 of 3, 6 of 6"
same,T/C,"dose: 200.0 mg/kg/injection, schedule: Q04DX002 (ip), vehicle: Klucel (hydroxypropylcellulose) (HPC), evaluated on day 30","86, 95, 96, 96 [2 of 3 alive], 97, 99, 100, 101, 102, 103 (3×), 106, 107, 107 [2 of 3 alive], 108, 109, 110 (2×), 111, 112 (2×), 113 [5 of 6 alive], 114, 119, 125, 128 (2×), 130, 133, 150 % of control"
same,T/C,"dose: 200.0 mg/kg/injection, schedule: Q04DX002 (ip), vehicle: Klucel (hydroxypropylcellulose) (HPC), evaluated on day 35",106 % of control
same,survivor count,"dose: 200.0 mg/kg/injection, schedule: Q04DX002 (ip), vehicle: Klucel (hydroxypropylcellulose) (HPC)",3 of 3 and 6 of 6
same,T/C,"dose: 200.0 mg/kg/injection, schedule: Q04DX003 (ip), vehicle: Klucel (hydroxypropylcellulose) (HPC), evaluated on day 30","91, 91 [5 of 6 alive], 93, 94 (2×), 95 (2×), 96, 98, 98 [2 of 3 alive], 99 [5 of 6 alive], 100 (2×), 103 (3×), 104, 105, 106 (2×), 107, 108, 109 (2×), 113, 115, 118, 122, 130, 134, 144, 148 % of control"
same,T/C,"dose: 200.0 mg/kg/injection, schedule: Q04DX003 (ip), vehicle: Klucel (hydroxypropylcellulose) (HPC), evaluated on day 35",102 and 107 % of control
same,survivor count,"dose: 200.0 mg/kg/injection, schedule: Q04DX003 (ip), vehicle: Klucel (hydroxypropylcellulose) (HPC)",6 of 6
same,T/C,"dose: 400.0 mg/kg/injection, schedule: Q01DX001 (ip), vehicle: Klucel (hydroxypropylcellulose) (HPC), evaluated on day 30","95 [5 of 6 alive], 100 (3×), 101, 102 (2×), 104, 106, 107, 109 (3×), 109 [5 of 6 alive], 110, 113 (2×), 115, 116, 118 [4 of 6 alive], 123 % of control (2×)"
same,T/C,"dose: 400.0 mg/kg/injection, schedule: Q01DX001 (ip), vehicle: Klucel (hydroxypropylcellulose) (HPC), evaluated on day 35",110 and 129 % of control
same,survivor count,"dose: 400.0 mg/kg/injection, schedule: Q01DX001 (ip), vehicle: Klucel (hydroxypropylcellulose) (HPC)","0 of 3, 1 of 3, 3 of 6, 2 of 3, 3 of 3"
same,T/C,"dose: 400.0 mg/kg/injection, schedule: Q01DX005 (ip), vehicle: Klucel (hydroxypropylcellulose) (HPC), evaluated on day 30","90, 97, 101, 108, 113, 130, 142, 148 % of control"
same,T/C,"dose: 400.0 mg/kg/injection, schedule: Q01DX005 (ip), vehicle: Klucel (hydroxypropylcellulose) (HPC), evaluated on day 35",134 % of control
same,survivor count,"dose: 400.0 mg/kg/injection, schedule: Q01DX005 (ip), vehicle: Klucel (hydroxypropylcellulose) (HPC)","0 of 3, 0 of 6, 1 of 6, 1 of 3, 2 of 6, 3 of 6, 3 of 3"
same,T/C,[2],"93 [4 of 6 alive], 95 [2 of 3 alive], 100 [5 of 6 alive], 104 [2 of 3 alive], 105, 112, 113, 126, 141, 144 % of control"
same,survivor count,[2],"0 of 3, 0 of 6, 1 of 3, 2 of 6, 3 of 6, 2 of 3, 4 of 6, 5 of 6, 3 of 3, 6 of 6"
same,survivor count,"dose: 400.0 mg/kg/injection, schedule: Q01DX009 (oral), vehicle: saline with Tween-80",6 of 6
same,T/C,[3],"88, 89, 94, 99 [2 of 3 alive], 101, 103, 106 (2×), 108, 109, 111, 112, 115 (3×), 116 [2 of 3 alive], 116 [5 of 6 alive], 122, 123 [2 of 3 alive], 125, 126, 126 [5 of 6 alive] (2×), 128, 130 (2×), 134 (2×), 148 % of control"
same,survivor count,[3],"0 of 3, 1 of 3, 4 of 6"
same,T/C,"dose: 400.0 mg/kg/injection, schedule: Q04DX003 (ip), vehicle: Klucel (hydroxypropylcellulose) (HPC), evaluated on day 30","90 [2 of 3 alive], 92, 93, 98, 99, 100, 101 (2×), 107, 108, 109, 109 [5 of 6 alive], 112, 113, 115, 116, 116 [5 of 6 alive], 118, 120, 121, 123, 130, 137, 139 % of control"
same,T/C,"dose: 400.0 mg/kg/injection, schedule: Q04DX003 (ip), vehicle: Klucel (hydroxypropylcellulose) (HPC), evaluated on day 35",91 % of control
same,survivor count,"dose: 400.0 mg/kg/injection, schedule: Q04DX003 (ip), vehicle: Klucel (hydroxypropylcellulose) (HPC)","0 of 3, 1 of 6, 1 of 3, 2 of 3 (2×), 3 of 3, 6 of 6"
same,survivor count,"dose: 800.0 mg/kg/injection, schedule: Q01DX009 (oral), vehicle: saline with Tween-80",2 of 6

# Reference: PubChem BioAssay AID328 (DTP/NCI, 2004)
